Test results published in PMC5716589, “The nucleoid as a scaffold for the assembly of bacterial signaling complexes” (PLoS Genetics, 2017).
For some of these results: Negatives hold for the conditions tested. Tags and fusion partners may be left off the protein sequences shown. For some of these results: Weaker means in comparison with the reference protein, sequence or condition of that experiment.

What was measured:
6His-FrzCD [1] = target: T1, 6His-FrzCD (UniProt P43500); assay: BLI; conditions: protein immobilized, 38 nM DNA, not fitted by 1:1 model, no Kd; BLI: PBS pH 7.5, 0.001% Tween-20, 25 C (6His-FrzCDΔ1-130 used as reference subtraction); recombinant protein; residues 1-417; protein details: 6His; probe letters rebuilt from the primers and the genome
T1 sequence (looked up): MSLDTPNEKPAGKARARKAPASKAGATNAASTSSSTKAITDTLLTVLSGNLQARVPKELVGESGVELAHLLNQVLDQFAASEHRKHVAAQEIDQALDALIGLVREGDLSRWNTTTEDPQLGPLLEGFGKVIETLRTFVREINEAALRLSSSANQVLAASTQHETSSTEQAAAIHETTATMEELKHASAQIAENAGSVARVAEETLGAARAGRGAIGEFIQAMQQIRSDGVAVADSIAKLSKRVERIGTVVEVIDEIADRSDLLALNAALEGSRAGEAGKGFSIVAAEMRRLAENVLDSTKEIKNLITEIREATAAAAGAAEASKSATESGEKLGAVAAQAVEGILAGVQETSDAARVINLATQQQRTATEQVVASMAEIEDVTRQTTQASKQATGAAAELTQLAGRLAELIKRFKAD

6His-FrzCDΔ7-27 del7-27 = target: T2, 6His-FrzCDΔ7-27 del7-27 (UniProt P43500); assay: BLI; conditions: protein immobilized, 38 nM DNA, detectable but severely impaired; BLI: PBS pH 7.5, 0.001% Tween-20, 25 C (6His-FrzCDΔ1-130 used as reference subtraction); recombinant protein; residues 1-417; protein details: 6His; probe letters rebuilt from the primers and the genome
T2 sequence (looked up): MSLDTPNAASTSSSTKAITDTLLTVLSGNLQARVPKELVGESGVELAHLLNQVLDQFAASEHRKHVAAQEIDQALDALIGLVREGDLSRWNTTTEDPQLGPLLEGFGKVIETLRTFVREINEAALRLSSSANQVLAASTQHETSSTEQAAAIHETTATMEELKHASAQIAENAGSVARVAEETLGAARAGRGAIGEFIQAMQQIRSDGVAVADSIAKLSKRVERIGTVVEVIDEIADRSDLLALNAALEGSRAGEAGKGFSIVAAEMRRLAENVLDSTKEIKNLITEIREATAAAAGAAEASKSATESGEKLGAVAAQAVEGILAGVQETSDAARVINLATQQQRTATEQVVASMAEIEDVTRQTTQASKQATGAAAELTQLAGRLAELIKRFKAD

6His-FrzCD [2] = target: T1, 6His-FrzCD; assay: EMSA; conditions: 10 nM DNA, EMSA Fig 3: 10 mM Tris-HCl pH 8, 60 mM NaCl, 10% glycerol, 4 C, 40 min, EMSA S4 Fig: 50 mM Tris pH 7.4, 50 mM NaCl, 1 mM DTT, 25 C, 20 min, recombinant protein, residues 1-417, protein details: 6His, probe letters rebuilt from the primers and the genome
[3] = target: T3, 6His-FrzCDΔ1-130 del1-130 (UniProt P43500); assay: EMSA; conditions: 10 nM DNA, EMSA Fig 3: 10 mM Tris-HCl pH 8, 60 mM NaCl, 10% glycerol, 4 C, 40 min, EMSA S4 Fig: 50 mM Tris pH 7.4, 50 mM NaCl, 1 mM DTT, 25 C, 20 min, recombinant protein, residues 131-417, protein details: 6His, probe letters rebuilt from the primers and the genome
T3 sequence (looked up): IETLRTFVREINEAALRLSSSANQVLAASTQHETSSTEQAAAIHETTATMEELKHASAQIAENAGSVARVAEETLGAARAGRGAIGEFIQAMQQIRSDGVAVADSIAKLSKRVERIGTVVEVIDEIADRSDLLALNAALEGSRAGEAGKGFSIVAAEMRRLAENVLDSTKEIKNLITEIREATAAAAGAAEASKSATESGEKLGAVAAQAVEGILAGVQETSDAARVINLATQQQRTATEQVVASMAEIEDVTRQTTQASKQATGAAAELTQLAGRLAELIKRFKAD

| Sequence | binding result (6His-FrzCD [1]) | binding result (6His-FrzCDΔ7-27 del7-27) | binding result (6His-FrzCD [2]) | binding result [3] |
| --- | --- | --- | --- | --- |
| TCACGCGGGCTCCGGCTCCTGCGGCGCGGCCAGGGCGGCATCCAGCTCCAGGGCCTCGGCCTCGGACAGGAAGGTGCGCAGGTCATGGACCAGGACGAGCCCGTCCTTCAGCTTCACGGCGCCCGCCACATAGCCCACGCCCGGAAGCTGGCGCGGCGTGGCGTCCCACTCATCCGGTGTGAGGACGCGCAGGCCCTCGGCCCGGTCCACGCGCAGCACGACGCAGCGGTCGCCCGCGGAGGCCACGATGAAGTGATCCATGGGGGACAGCGGGCGGGGCGGGTGGCGGAAGCGCAGGCGCAGGTCCAGCACCGGCAGCAGCTCCCCCCGAAGGTCCAGCAGGCCCTCCACCACGGCGGGCGCGCGAGGGAGCGGCGTCAGGCGCGCAGCGCGTACCAACTCGCGCACGTCGGGTGCGGGCAGTCCGTAGCGCTGGCCGTTCAGGGTGAACAGCAGCACCTCCGTGGGTGCGGGGGTCT (double strand) [474 bp BLI fragment] | binds | binds more weakly | – | – |
| CGGGATCCTGGCTCCGCCCCCGACGCAGGCCCCCGTGGCCGAGCCGGGGGCGCACGCCGCCGCAGCCGCGCCTCACCCGGCTGCCGCGCATGGCCGTGACGAGGAGGCCCCGAGCGCCGCGAAGTCCGCGGTGGCCGACCGGAGCATCCGCGTCAACGTGGAGGTGCTCGACGCGTTGGGGTTGCTCGCGGGCGACCTGCTGGTGGAGAGCGCCCGCGGCCGGCTGCGCAGCTCGGAGACGGAGGCGTTGTTCGAGCGCTTCAGCCGCCTGGGGGACCGCTTCCTCCGGCTGGCGGAAGAGATCGACATCTCGAACGAGGTGCGTGAGCAGTTGGACCGCGTGGAGAGCGACCTCCACATGCTGCGCGACGACGCGTTCCGCTTCGTGCGCCGCAACGACGACGGCATCAACACGCTGCACGGCAACCTGGCGAAGATGGCGGACCACGTGGCCGAGGCCCGGCTGGTGCCGCTGTCCACCGTGTTCGACGCCTTCCCGCGCGCCGTTCGCGAGATGTCGCGCACGCAGGGCAAGGAAGTGGACCTGGTCATCGAGAACGCCGACATCGGCGTGGACCGGTCCATGCTGGGCGACGTGCGAGACGCGCTGGTGCACCTGCTGCGCAACTCGGTGGACCACGGCGTGGAGTCCCCGGACACGCGCCAGCAGTTGGGCAAGCCGCTCAACGGCCGCATCCGCATCCGCGTGCGCGTGGACGGCGACATGCTCCACATCGAGGTGGAGGACGACGGCCGCGGCATCGACCCGGAGCGGCTGCGTCAGGCGGCCATCTCCAAGCGCCTCATCAAAAGCTTGGG (double strand) [Oligo801] | – | – | binds | no binding |
